The test addresses T1, RBBP6_(1-335), FLAG-tagged, purified (human) (UniProt Q7Z6E9).
T1 sequence: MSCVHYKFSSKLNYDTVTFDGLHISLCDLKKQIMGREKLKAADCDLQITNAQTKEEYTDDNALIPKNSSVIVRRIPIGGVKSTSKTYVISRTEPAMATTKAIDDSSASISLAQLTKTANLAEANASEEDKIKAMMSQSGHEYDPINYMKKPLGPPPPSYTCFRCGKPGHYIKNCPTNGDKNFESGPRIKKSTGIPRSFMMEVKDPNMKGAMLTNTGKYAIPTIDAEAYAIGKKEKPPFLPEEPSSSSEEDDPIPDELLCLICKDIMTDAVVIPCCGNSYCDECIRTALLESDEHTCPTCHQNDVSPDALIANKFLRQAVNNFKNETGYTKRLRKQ
The experiment in a line: pull-down.

Sequences of proteins named here, by UniProt entry; tags and fusion partners are left off. A change or cut given only in a name is not applied to a line headed by its entry.
UniProt Q9UKF6: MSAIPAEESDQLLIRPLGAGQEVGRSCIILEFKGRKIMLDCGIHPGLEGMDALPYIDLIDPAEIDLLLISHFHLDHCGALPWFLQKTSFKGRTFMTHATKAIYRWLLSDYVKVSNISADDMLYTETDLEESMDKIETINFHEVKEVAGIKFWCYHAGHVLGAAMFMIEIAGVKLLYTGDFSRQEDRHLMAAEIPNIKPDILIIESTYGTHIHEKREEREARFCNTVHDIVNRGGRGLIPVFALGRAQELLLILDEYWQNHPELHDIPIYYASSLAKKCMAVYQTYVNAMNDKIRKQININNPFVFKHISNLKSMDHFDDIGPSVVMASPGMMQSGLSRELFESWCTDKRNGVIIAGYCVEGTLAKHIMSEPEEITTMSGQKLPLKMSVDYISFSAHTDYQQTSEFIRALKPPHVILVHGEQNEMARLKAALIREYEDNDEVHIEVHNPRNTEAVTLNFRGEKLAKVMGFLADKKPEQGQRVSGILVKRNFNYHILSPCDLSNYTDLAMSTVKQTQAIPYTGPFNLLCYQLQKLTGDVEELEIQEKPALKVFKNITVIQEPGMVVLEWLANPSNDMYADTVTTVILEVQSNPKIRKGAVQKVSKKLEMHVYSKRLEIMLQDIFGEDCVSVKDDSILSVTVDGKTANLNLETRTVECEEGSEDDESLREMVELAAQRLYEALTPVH

Results are given in words; binding and its absence hold for the method and conditions named. Some entries that bind do so weakly or less than the wild type. Tags and fused reporters may be left off the sequences shown.

Turning to “four-subunit mCF (from UniProt Q9UKF6 1-684; Q9P2I0 1-782; Q92797 1-1274; P33240 1-577) (complex)”, the binding result is “binds”.
